From PubChem BioAssay AID493014 (National Center for Advancing Translational Sciences (NCATS), 2011) come the findings set out here.

The other results are listed elsewhere or left out. Shown are side measurements of this screen, not its main read-out; they come without a call. Compounds called inactive in the main read-out are mostly missing here. The note in brackets gives the kind of curve behind each potency; many fits are weak.

The test in a line: qHTS Assay to Find Inhibitors of Chronic Active B-Cell Receptor Signaling. As to conditions: ABC-DLBCL IkBa-CBG/CBR reporter, luminescence ratio (green luciferase fused to IkBa over red control in TMD8 lymphoma cells), 4 h. In a few lines: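 Compounds up to 46 uM were incubated four hours with TMD8 cells whose green CBG68 luciferase is fused to IkappaBalpha; red CBR luminescence normalised the signal, and concentration-effect curves were fitted to fusion, red and ratio data.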
(In general: Quantitative high-throughput screening tests each substance at several concentrations.)

The mark [1] stands for this setting: measured here: CBR red luminescence, cell number.
The mark [2] stands for this setting: measured here: IkBa-CBG green luminescence.

The AC50 is the concentration giving half of the maximal activity seen. With `COc1ccccc1OCC(=O)Nc1nc(C)c(C)s1`, the AC50 under setting [1] is 12.6 µM [falling, single point]. Consider `CCOC(=O)C1CCN(S(=O)(=O)c2ccc(-c3nc4ccccc4s3)s2)CC1`, for which the AC50 under setting [1] was 3.98 µM [rising, full curve, poor fit]. Same read-out and setting: the result for `O=C(CSc1cn(CCNC(=O)c2ccc3ccccc3c2)c2ccccc12)NCc1ccco1` reads 23.1 µM [falling, single point]. As to `O=C(O)c1ccc(/C=N/Nc2ccc(C(F)(F)F)cn2)cc1`, the AC50 under setting [1] is 4.47 µM [falling, partial curve, poor fit]. `CC(Nc1ccc2c(c1)OCCO2)C(=O)N1CCc2ccccc21` (configuration not stated): the AC50 under setting [1] is 0.794 µM [falling, full curve, poor fit]. For the compound `O=C(Nc1ccc(Cl)cc1)c1cc(S(=O)(=O)N2CCc3ccccc32)ccc1F`, the AC50 under setting [1] is 8.91 µM [falling, partial curve]. For the compound `O=C(c1cccs1)N1N=C(c2ccccc2)CC1c1ccccc1` (configuration not stated), the AC50 is 20.6 µM [falling, single point] under setting [1] and 20.6 µM [rising, partial curve, poor fit] under setting [2].

For the compound `CCN(CC)c1ccc(/C=N/N=C(N)N)c(O)c1`, the AC50 by setting is: under setting [1], 11.2 µM [rising, partial curve, poor fit]; under setting [2], 15.8 µM [falling, partial curve].

As to `CCOc1cc(CNC2CCCC2)cc(Cl)c1OCc1ccccc1`, the AC50 under setting [1] is 35.5 µM [falling, single point]. `CN(C)c1ccc(/C=N/NC(=O)c2ccccc2Cl)cc1`: under setting [1], the AC50 is 1.84 µM [falling, partial curve].

Take `O=C(Nc1cccc2c1N(C(=O)c1ccco1)CCC2)c1ccco1`: under setting [1], the AC50 is 35.5 µM [rising, single point].

Regarding `Cc1ccc(CN2C(=O)/C(=C3\SC(N4CCOCC4)=NC3=O)c3cc(Br)ccc32)cc1`, the AC50 under setting [1] was 12.6 µM [rising, partial curve, poor fit].

On to `O=C(N/N=C/c1ccc(O)cc1)c1cc(-c2ccc3c(c2)OCO3)n[nH]1`, for which, under setting [1], the half-maximal activity concentration (AC50) is 2.06 µM [falling, partial curve, poor fit]. As to `Clc1ccc(-c2onc3c2CCCC3)cc1`, under setting [1], the AC50 was 3.66 µM [rising, full curve]. Consider `O=C(Nc1ccc2c(c1)CCC2)c1ccc(Cl)nc1`, for which the AC50 reads like this: under setting [1], 0.0891 µM [rising, full curve, poor fit]; under setting [2], 8.91 µM [rising, partial curve, poor fit]. Regarding `O=C(NCCN1C(=O)S/C(=C\c2ccc(OC(F)F)cc2)C1=O)c1cnccn1`, the AC50 under setting [2] is 23.1 µM [falling, single point]. For `O=C(/C=C/c1ccccc1)NCc1ccco1`, under setting [1], the AC50 is 10 µM [falling, partial curve, poor fit]. For the compound `CC(C)NC(=O)CSc1nnc(-c2ccc3ncccc3c2)n1C`, the AC50 under setting [1] is 11.2 µM [rising, partial curve]. `CCn1c(C(=O)N2CCc3ccccc3C2)cc2sccc21`: the AC50 under setting [1] was 11.6 µM [falling, partial curve, poor fit]. Same read-out and setting: the result for `O=C(Oc1ccc(-c2ccccc2)cc1)C1C2CCCCC21` (configuration not stated) reads 29.1 µM [rising, single point]; that for `COC(=O)c1ccccc1C(=O)c1cccc2ccccc12`, 12.6 µM [rising, partial curve, poor fit]. Same read-out and setting: the result for `CC(=O)Nc1ccc(C2=NN(c3ccccc3)C(c3ccccc3)C2)cc1` (configuration not stated) reads 35.5 µM [falling, single point]; that for `CSCCC(NC(=O)c1ccc([N+](=O)[O-])cc1Cl)C(=O)OCC(=O)N(C)C` (configuration not stated), 0.326 µM [rising, partial curve, poor fit]; that for `COc1ccc(NC(=O)CSCC(=O)OCc2cccc(OC)c2OC)cc1`, 25.9 µM [rising, partial curve, poor fit]. For the compound `O=C(O)c1cccc(COc2ccc3c(c2)CCC3)c1`, the half-maximal activity concentration (AC50) under setting [1] was 1.78 µM [falling, full curve]. As to `Cc1ccc(C)c(OCCC(=O)OCC(=O)Nc2ccc(C)c(S(=O)(=O)N3CCCCC3)c2)c1`, the AC50 under setting [1] is 4.11 µM [rising, partial curve, poor fit]. As for `CCOC(=O)C1=C(CSc2nc3c(cc2C#N)CN(C)CC3)OC(N)=C(C#N)C1c1ccc(F)cc1` (configuration not stated), under setting [1], the AC50 is 0.651 µM [falling, full curve, poor fit]. Regarding `CC1=NN(c2ccccc2C(=O)O)C(=O)C1N=Nc1ccccc1` (configuration not stated), the concentration at half-maximal activity (AC50) under setting [1] is 14.1 µM [falling, partial curve]. For `CN(CC(=O)Nc1ccc(Cl)c(C(F)(F)F)c1)C(=O)c1cccc(N2C(=O)CCC2=O)c1`, the AC50 under setting [1] is 0.184 µM [rising, full curve, poor fit]. `COc1ccc(C2(O)CC3CCC(C2)N3c2nc(C)cc(C)c2C#N)cc1` (configuration not stated): the AC50 under setting [1] was 0.184 µM [rising, partial curve, poor fit]. On the same count and under the same terms, the result for `Cc1ccccc1-c1nn2c(-c3ccccc3)nnc2s1` reads 31.6 µM [falling, single point].

As for `CCC(OC(=O)c1cccs1)C(=O)NCc1ccc2c(c1)OCO2` (configuration not stated), under setting [1], the AC50 is 25.9 µM [rising, single point]. Consider `C=C(C)C1CC=C(C)/C(=N/Nc2ccccc2[N+](=O)[O-])C1` (configuration not stated), for which the AC50 under setting [1] was 18.4 µM [rising, partial curve]. `CC1=C/C(=N\OS(=O)(=O)c2ccccc2)C(C(C)C)=CC1=O`: the AC50 under setting [1] is 29.1 µM [falling, single point]. For the compound `CC(C)(C)c1nnc2sc(SC/C(O)=C(\C#N)c3nc4ccccc4[nH]3)nn2c1=O`, the AC50 under setting [1] was 0.708 µM [falling, full curve, poor fit]. Take `CC(C)c1nnc(NC(=O)C2CCCN2C(=O)Nc2ccccc2F)s1` (configuration not stated): the AC50 under setting [2] is 35.5 µM [falling, single point]. `C=CCOc1ccc(C(=O)/C=C2/C(=O)Nc3ccccc32)cc1`: the AC50 was 35.5 µM [rising, partial curve, poor fit] under setting [1] and 35.5 µM [falling, single point] under setting [2]. Consider `O=C(Nn1c(O)c(C=C2N=c3ccccc3=N2)sc1=S)c1ccccc1`, for which the AC50 under setting [1] is 0.058 µM [falling, full curve, poor fit]. Still for that read-out and setting: next, `COc1ccc(-n2cc(C#N)c(=O)n(Cc3ccc(F)cc3)c2=O)cc1`: 20 µM [falling, partial curve, poor fit]; `COc1ccc(COC(=O)NNC(=O)c2ccccc2Cl)cc1`: 29.1 µM [rising, single point].

In the case of `CN(C)S(=O)(=O)c1ccc(C(=O)NCc2cccs2)cc1`, the AC50 under setting [1] is 0.116 µM [rising, full curve, poor fit]. As to `Nc1ccc(N=Nc2ccccc2)c(N)n1`, the AC50 under setting [1] was 11.6 µM [rising, partial curve, poor fit]. In the case of `Cc1cccc2sc(N(CCCN(C)C)C(=O)CCS(=O)(=O)c3ccccc3)nc12`, the AC50 under setting [1] is 10 µM [falling, partial curve]. Turning to `Cc1ccccc1OCCCn1c(=O)sc2ccccc21`, the AC50 under setting [1] was 6.31 µM [rising, full curve, poor fit]. On the same count and under the same terms, next, `O=C(c1cc(COc2ccc(F)cc2Cl)on1)N1CC[C@@H]2CCCC[C@H]2C1`: 6.31 µM [rising, single point]. As for `CCc1ccc(Nc2nnc(SCC(=O)Nc3cccc(S(=O)(=O)NC4=NCCCCC4)c3)s2)cc1`, the AC50 under setting [1] was 16.4 µM [falling, partial curve]. In the case of `CC(C)(CCl)C(=O)Nc1ccc(C(F)(F)F)cc1`, the AC50 under setting [1] is 11.2 µM [rising, partial curve, poor fit]. In the case of `COc1ccc2cc(-c3nnc(Nc4ccccc4)s3)c(=O)oc2c1`, the AC50 under setting [1] is 15.8 µM [falling, partial curve, poor fit]. `CC(C)C(=O)N1CCN(c2ccc(NC(=O)c3ccc([N+](=O)[O-])o3)cc2)CC1`: under setting [1], the AC50 is 35.5 µM [falling, single point]. For `c1ccc2c(CCNc3ncnc4nc[nH]c34)cccc2c1`, the AC50 under setting [1] is 20.6 µM [falling, single point]. As for `COc1cccc(CNC(=O)c2ccc3c(=O)n4nc(Nc5ccccc5)sc4nc3c2)c1`, the AC50 under setting [1] is 7.94 µM [falling, partial curve]. `Cc1cc(NC(=O)c2sc(Nc3ccc(F)c(Cl)c3)nc2N)no1`: the AC50 under setting [1] was 25.1 µM [falling, partial curve, poor fit]. In the case of `Cc1cccnc1NC(=O)c1ccc(S(=O)(=O)N2CCC(C)CC2)cc1`, the AC50 under setting [1] is 18.4 µM [falling, single point].

Turning to `CCCCCOC(=O)Nc1nnc(CCCCC)s1`, under setting [1], the AC50 is 29.1 µM [rising, single point]. Turning to `COc1ccc(OCc2cc(C(=O)O)c(C)o2)cc1`, the AC50 under setting [1] was 8.91 µM [falling, partial curve, poor fit]. Turning to `CCCCc1c(C)nc2ccc(Br)cc2c1SC(N)N`, the AC50 under setting [1] is 25.1 µM [rising, single point]. Consider `CCOC(=O)c1cnc(-c2ccccc2)nc1Oc1ccc(C)cc1`, for which the half-maximal activity concentration (AC50) under setting [1] is 5.62 µM [falling, single point]. On to `CCC(=O)Nc1nnc(-c2ccncc2)s1`, for which, under setting [1], the AC50 was 7.31 µM [falling, partial curve, poor fit]. `CCC(CO)Oc1cc(NCc2cc(C)cc(C)c2)c2ncn(C(C)C)c2c1` (configuration not stated): the AC50 under setting [1] is 20.6 µM [falling, single point].

With `O=C(Cn1c(=O)cnc2ccccc21)NNC(=O)c1ccc(Cl)cc1`, the AC50 under setting [1] is 32.6 µM [rising, single point].

Turning to `O=C(Nc1ccccc1)c1ccc(OC(=O)c2cc3ccccc3o2)cc1`, the AC50 under setting [1] is 2.91 µM [falling, partial curve]. On the same count and under the same terms, next, `O=C(O)c1ccccc1C(=O)NC1CCCCNC1=O` (configuration not stated): 22.4 µM [falling, single point]; `COc1ccc(CCNC(=O)CN2CCN(c3cccc(C(F)(F)F)c3)CC2)cc1`: 0.517 µM [falling, full curve].
